The list shows a part of the results. Repeats in this data set agree poorly, so a single value says little.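 Free-swimming zebrafish larvae were scored for O-bend response probability to dark flashes (naive: first five; training: remaining flashes of four 60-flash blocks; test: later 60-flash block) and for turning toward alternating leftward/rightward LED motion (OMR). Six treated larvae were compared with sixty 0.1% DMSO controls; |SSMD|≥2 defined a hit.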
Columns and labels:
Details in all cases: 10 µM; pre-incubation: 30-90 min
[1] = test system: Danio rerio larvae (5 dpf, TLF); experiment: OMR-Perf (SSMD vs DMSO vehicle); higher = higher than vehicle (e.g. higher dark-flash O-bend response probability, or better optomotor performance)
[2] = test system: Danio rerio larvae (5 dpf, TLF); experiment: Prob-Test (SSMD vs DMSO vehicle); higher = higher than vehicle (e.g. higher dark-flash O-bend response probability, or better optomotor performance)
[3] = test system: Danio rerio larvae (5 dpf, TLF); experiment: Prob-Naive (SSMD vs DMSO vehicle); higher = higher than vehicle (e.g. higher dark-flash O-bend response probability, or better optomotor performance)
[4] = test system: Danio rerio larvae (5 dpf, TLF); experiment: Prob-Train (SSMD vs DMSO vehicle); higher = higher than vehicle (e.g. higher dark-flash O-bend response probability, or better optomotor performance)

| Structure (SMILES) | OMR-Perf [1] | Prob-Test [2] | Prob-Naive [3] | Prob-Train [4] |
| --- | --- | --- | --- | --- |
| OC[C@H]1O[C@@H](OCCc2ccc(O)cc2)[C@H](O)[C@@H](O)[C@@H]1O [Salidroside] | 0.341 | 0.138 | -0.0925 | -0.0522 |
| O=c1c(O)c(-c2ccc(O)c(O)c2)oc2cc(O)cc(O)c12 [Quercetin] | -0.856 | 0.145 | -0.476 | -0.0164 |
| Cc1nccn1CC1CCc2c(c3ccccc3n2C)C1=O.Cl (stereo not drawn) [Ondansetron HCl] | -0.197 | 0.644 | 0.442 | -0.0188 |
| COC(=O)C1=CO[C@H](O)[C@@H]2C(CO)=CC[C@H]12 [Genipin] | -0.439 | 0.103 | 0.516 | -0.0213 |
| Cc1c(C(=O)Nc2ccc(N3C[C@@H](C)O[C@@H](C)C3)nc2)cccc1-c1ccc(OC(F)(F)F)cc1 [LDE225 (NVP-LDE225,Erismodegib)] | -0.67 | -1.03 | 0.028 | -1.64 |
| COC(=O)NC(C)CNc1nccc(-c2cn(C(C)C)nc2-c2cc(Cl)cc(NS(C)(=O)=O)c2F)n1 (stereo not drawn) | -0.518 | -0.164 | -0.102 | 0.266 |
| CC(C)c1c(C(=O)Nc2ccccc2)c(-c2ccccc2)c(-c2ccc(F)cc2)n1CC[C@@H](O)C[C@@H](O)CC(=O)[O-].CC(C)c1c(C(=O)Nc2ccccc2)c(-c2ccccc2)c(-c2ccc(F)cc2)n1CC[C@@H](O)C[C@@H](O)CC(=O)[O-].[Ca+2] [Atorvastatin Calcium] | 0.0766 | -0.249 | 0.507 | 0.0181 |
| O=C(O)CSCC(=O)NC1CCSC1=O (stereo not drawn) [Erdosteine] | 0.529 | -0.682 | 0.0939 | -0.726 |
| N.N.O=C([O-])C1(C(=O)[O-])CCC1.[Pt+2] [Carboplatin] | -0.222 | -0.173 | -0.295 | -0.2 |
| Cc1cccc(C#Cc2ccccc2)n1 | -0.41 | -1.07 | -0.369 | -1.27 |
| CN1CCN(CCCN2c3ccccc3Sc3ccc(C(F)(F)F)cc32)CC1.Cl.Cl [Trifluoperazine 2HCl] | -0.718 | -2.09 | -0.829 | -1.17 |
| Cc1onc(-c2c(Cl)cccc2Cl)c1C(=O)N[C@@H]1C(=O)N2[C@@H](C(=O)[O][Na])C(C)(C)S[C@@H]12.O [Dicloxacillin Sodium] | 1.02 | -0.446 | -0.256 | -0.00477 |
| CC(=O)Nc1cccc(-n2c(=O)n(C3CC3)c(=O)c3c(Nc4ccc(I)cc4F)n(C)c(=O)c(C)c32)c1 | -0.77 | -1.94 | 0.289 | -1.05 |
| CN1CCN(C(c2ccccc2)c2ccccc2)CC1.Cl.Cl [Cyclizine 2HCl] | -0.356 | 0.763 | 0.185 | 0.87 |
| O=S(=O)(c1ccccc1)c1cnc2c(N3CCNCC3)cccc2c1 | 0.245 | 0.0598 | 0 | 0.635 |
| Cl.O=C1c2cccc3c2[C@H](CCC3)CN1[C@@H]1CN2CCC1CC2 [Palonosetron HCl] | 0.254 | -0.678 | 0.271 | 0.261 |
| COc1cc(C(C)=O)ccc1OCCCN1CCC(c2noc3cc(F)ccc23)CC1 [Iloperidone] | -1.01 | -1.15 | 0.26 | 0.233 |
| Cc1ccccc1C(=O)Nc1ccc(C(=O)N2CCCC(N(C)C)c3ccccc32)cc1 (stereo not drawn) [Mozavaptan] | -0.33 | -0.041 | -0.528 | -0.279 |
| CC(/C=C1\SC(=S)N(CC(=O)O)C1=O)=C\c1ccccc1 [Epalrestat] | -0.577 | 0.146 | -0.6 | -0.384 |
| Cc1ccc(S(=O)(=O)NC(=O)NN2CC3CCCC3C2)cc1 (stereo not drawn) [Gliclazide] | -0.409 | -0.19 | -0.0702 | -0.341 |
| COc1cc[nH]c2ncc(C(=O)C(=O)N3CCN(C(=O)c4ccccc4)C[C@H]3C)c1-2 | -0.146 | 0.522 | -0.263 | 0.946 |
| CCC[C@H](NC(=O)[C@H]1[C@H]2CCC[C@H]2CN1C(=O)[C@@H](NC(=O)[C@@H](NC(=O)c1cnccn1)C1CCCCC1)C(C)(C)C)C(=O)C(=O)NC1CC1 [Telaprevir (VX-950)] | 0.422 | 0.0338 | 0.176 | 0.22 |

Taken from the entries so far (6 entries):

| Structure (SMILES) | OMR-Perf [1] | Prob-Test [2] | Prob-Naive [3] | Prob-Train [4] |
| --- | --- | --- | --- | --- |
| CN1CCN(C(c2ccccc2)c2ccccc2)CC1.Cl.Cl [Cyclizine 2HCl] | -0.356 | 0.763 | 0.185 | 0.87 |
| O=S(=O)(c1ccccc1)c1cnc2c(N3CCNCC3)cccc2c1 | 0.245 | 0.0598 | 0 | 0.635 |
| Cl.O=C1c2cccc3c2[C@H](CCC3)CN1[C@@H]1CN2CCC1CC2 [Palonosetron HCl] | 0.254 | -0.678 | 0.271 | 0.261 |
| COc1cc(C(C)=O)ccc1OCCCN1CCC(c2noc3cc(F)ccc23)CC1 [Iloperidone] | -1.01 | -1.15 | 0.26 | 0.233 |
| Cc1ccccc1C(=O)Nc1ccc(C(=O)N2CCCC(N(C)C)c3ccccc32)cc1 (stereo not drawn) [Mozavaptan] | -0.33 | -0.041 | -0.528 | -0.279 |
| CC(/C=C1\SC(=S)N(CC(=O)O)C1=O)=C\c1ccccc1 [Epalrestat] | -0.577 | 0.146 | -0.6 | -0.384 |

Source: the supplement of paper PMC10727501
